Results deposited as PubChem BioAssay AID652243 (Drosophila RNAi Screening Center, 2013).
Purpose: 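Fly genes required for human androgen receptor driven transcription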 (primary screen). Cells: Drosophila S2R+ cells. Knock-down reagent: long dsRNA against Drosophila genes. Time to read-out: 72 h (48 h, then 24 h hormone). Challenge: synthetic androgen R1881 at 10 nM for 24 h. Read-out: 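Firefly light from an androgen-responsive reporter and Renilla control light per well, raw and unnormalised, for each of two replicates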. Reading the numbers: firefly reporter light: higher = more light from androgen-responsive reporter; Renilla control light: higher = more constitutive control signal (cell number, transfection). Call rule: 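Hit when the log firefly-to-Renilla ratio dropped or increased by a fixed fold versus the mean of GFP or LacZ controls across duplicate plates; lowering cut given as 1.5 and as 3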. Calls: active = hit: reporter lowered or raised; inactive = no hit.
In all, the deposit lists about 24,000 reagents; below is a random part of those with a known target gene and a result. Of all reagents, 246 (1%) got an active call. 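Plates not normalised; calls are printed but the firefly/Renilla ratio behind them is not deposited; fold cut for lowering reported inconsistently.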 The raw values are shown without normalisation. A number with no mark means an inactive call. Not stated in the record: the amount of reagent.

no.	Target gene	dsRNA	firefly reporter light, replicate 1	firefly reporter light, replicate 2	Renilla control light, replicate 1	Renilla control light, replicate 2
1	CAP	DRSC06743	1.16e6	5.18e5	2.26e6	1.07e6
2	CAP	DRSC06744	83544	1.00e5	1.77e6	2.44e6
3	CAP	DRSC06745	4.38e5	2.12e5	2.50e6	1.74e6
4	CAP	DRSC06846	3.44e5	2.57e5	2.54e6	2.22e6
5	Nmnat (Nicotinamide mononucleotide adenylyltransferase)	DRSC14644	1.84e5	1.53e5	2.40e6	2.52e6
6	Nmnat (Nicotinamide mononucleotide adenylyltransferase)	DRSC26899	5.51e5	5.17e5	6.26e5	5.98e5
7	CG34283	DRSC13313	5.72e5	6.96e5	2.41e6	3.61e6
8	Osi7 (Osiris 7)	DRSC12176	1.10e5	95812	2.64e6	2.22e6
9	Osi7 (Osiris 7)	DRSC27146	2.84e5	2.60e5	5.27e5	4.91e5
10	CG30082	DRSC22945	8.14e5	1.43e6	1.64e6	2.54e6
11	trp (transient receptor potential)	DRSC17088	3.25e5	4.62e5	1.71e6	2.69e6

Ordered by “Renilla control light, replicate 1” (ascending): some entries from above.
Target gene	dsRNA	firefly reporter light, replicate 1	firefly reporter light, replicate 2	Renilla control light, replicate 1	Renilla control light, replicate 2
CG34283	DRSC13313	5.72e5	6.96e5	2.41e6	3.61e6
Osi7 (Osiris 7)	DRSC12176	1.10e5	95812	2.64e6	2.22e6

The results go on:
no.	Target gene	dsRNA	firefly reporter light, replicate 1	firefly reporter light, replicate 2	Renilla control light, replicate 1	Renilla control light, replicate 2
12	CG9813	DRSC16569	1.39e5	33956	5.34e5	3.48e5
13	CG9813	DRSC26207	3.03e5	2.11e5	5.26e5	4.36e5
14	CG30432	DRSC04833	2.62e5	3.41e5	6.30e5	6.98e5
15	CG3713	DRSC18648	2.95e5	3.43e5	3.11e6	2.71e6
16	JYalpha	DRSC17224	2.39e5	2.50e5	3.22e6	2.50e6
17	Jheh3 (Juvenile hormone epoxide hydrolase 3)	DRSC06533	1.16e6	8.54e5	9.08e5	7.88e5
18	Jheh3 (Juvenile hormone epoxide hydrolase 3)	DRSC29140	5.85e5	5.02e5	1.50e6	1.05e6
19	TwdlK (TweedleK)	DRSC24969	6.37e5	1.09e6	1.14e6	1.25e6
20	Mybbp1A (MYB binding protein 1a)	DRSC18788	28781	35062	4.92e5	3.34e5
21	Cog6 (Component of oligomeric golgi complex 6)	DRSC06806	1.06e6	1.24e6	1.61e6	1.73e6
22	Cog6 (Component of oligomeric golgi complex 6)	DRSC29566	7.07e5	3.72e5	1.08e6	1.08e6
23	CG3088	DRSC10352	8.03e5	1.06e6	1.25e6	1.26e6
24	CG13321	DRSC06358	3.68e5	2.97e5	1.62e6	2.00e6
25	CG13321	DRSC27458	6.28e5	5.24e5	8.40e5	9.35e5
